# Test results published in the supplement of paper PMC12009310.
# Structures can show the parent of a compound that is named as a salt. ± gives the standard deviation of the averaged measurements. This is one part of the list. Baselines shift from plate to plate; read single values as rough.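 The cells are a mouse kidney inner medullary collecting duct line, silenced either for the ciliary gene Rpgrip1l or with a non-targeting control siRNA.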
# Experiments:
# mIMCD3 [1] = experiment: robust z score of cell number vs plate controls; higher = more cells (less cytotoxic); settings: 10 µM, 48 h
# mIMCD3 [2] = experiment: robust z score of cilia incidence (% cells with single cilium) vs plate controls; higher = more ciliated cells; settings: 10 µM; 48 h; siRNA: siScr
# mIMCD3 [3] = experiment: robust z score of cilia incidence (% cells with single cilium) vs plate controls; higher = more ciliated cells (rescue of cilia loss); settings: 10 µM; 48 h; siRNA: siRpgrip1l
Structure (SMILES),robust z score of cell number (mIMCD3 [1]; siRNA: siRpgrip1l),robust z score of cell number (mIMCD3 [1]; siRNA: siScr),robust z score of cilia incidence (mIMCD3 [2]),robust z score of cilia incidence (mIMCD3 [3])
O=C(O)C=C1CCCc2ccccc2C1O (configuration not stated),-2.04 ± 1.6,0.124 ± 4.6,-0.226 ± 2.4,-5.58 ± 4.3
Nc1nc(Nc2ccccc2)nc2c1ncn2[C@@H]1O[C@H](CO)[C@@H](O)[C@H]1O,-4.9 ± 3.7,-2.44 ± 1.4,-2 ± 4.5,-12.9 ± 5.8
CC(C)[C@H]1c2ccc(F)cc2CC[C@@]1(CCN(C)CCCc1nc2ccccc2[nH]1)OC(=O)C1CC1 [NNC 55-0396 dihydrochloride],-29.7 ± 15,-27.5 ± 4.8,-48.5 ± 36,-33 ± 19
CCCCC#Cc1nc(NC)c2ncn([C@@H]3O[C@H](CO)[C@@H](O)[C@H]3O)c2n1,-8.55 ± 10,4.538 ± 0.019,3.59 ± 2.4,-111 ± 86
O=c1c(O)c(-c2ccc(O)cc2)oc2cc(O)cc(O)c12 [Kaempferol],-41.3 ± 56,0.95 ± 1.4,-0.789 ± 0.11,-4.88 ± 2.1
Cc1c(C(=O)NN2CCOCC2)nn(-c2ccc(Cl)cc2Cl)c1-c1ccc(I)cc1,-6.6 ± 0.96,-0.737 ± 2.5,-0.579 ± 0.48,-18.8 ± 0.96
CN(C)CCCC1(c2ccc(F)cc2)OCc2cc(C#N)ccc21 (configuration not stated) [Citalopram hydrobromide],-42.6 ± 58,-2.74 ± 6.2,0.929 ± 0.87,-5.8 ± 5
CN(C(=O)CCCOc1ccc2[nH]c(=O)ccc2c1)C1CCCCC1 [Cilostamide],-3.03 ± 0.27,-4.2 ± 2.1,-4.73 ± 2.5,-10.9 ± 4.4
Cc1nc2c(c(=O)[nH]1)CSCC2,-4.91 ± 3.1,-14 ± 10,-3.06 ± 2.2,-14.5 ± 3.6
CCCCCCCCCCCCCCCC(=O)O[C@H](CC(=O)O)C[N+](C)(C)C (racemic) [(±)-Palmitoylcarnitine chloride],-121 ± 86,-161 ± 140,-20.5 ± 4.7,-48.05 ± 0.089
CN(C)C/C=C(/c1ccc(Br)cc1)c1cccnc1 [Zimelidine dihydrochloride],-1.94 ± 3.3,-3.73 ± 4.5,-2.55 ± 2.7,-13.8 ± 7.7
Cc1ccc(O)c(N=Nc2ccccc2)n1,-8.37 ± 3.6,-5.38 ± 0.3,-0.275 ± 1.9,-13.5 ± 1.3
Nc1nc(F)nc2c1ncn2[C@@H]1O[C@H](CO)[C@@H](O)[C@@H]1O [Fludarabine],-14.2 ± 13,-7.82 ± 3.3,-5.26 ± 2.4,-3.77 ± 0.46
Nc1nc(N)nc(-c2cc(Cl)ccc2Cl)n1 [Irsogladine maleate],-3.78 ± 3.2,-14.5 ± 15,1.58 ± 1.2,-13.8 ± 0.38
O=C1Nc2ccc(I)cc2/C1=C/c1cc(Br)c(O)c(Br)c1,-307 ± 220,-40.6 ± 9.6,-44.9 ± 1.8,-31.4 ± 16
CN[C@H]1CC[C@@H](c2ccc(Cl)c(Cl)c2)c2ccccc21 [Sertraline hydrochloride],-29.8 ± 15,-27.2 ± 4.6,-49.1 ± 36,-34.3 ± 17
O=C1c2ccccc2CCC1CNCCc1ccc(O)cc1 (configuration not stated) [HEAT hydrochloride],-45 ± 29,-75 ± 61,-1.6 ± 0.54,-17 ± 0.86
Cc1nc2sccn2c(=O)c1CCN1CCC(=C(c2ccc(F)cc2)c2ccc(F)cc2)CC1 [Ritanserin],-45.1 ± 41,-44.8 ± 29,-124 ± 75,-95.6 ± 85
c1ccc(C(O[C@@H]2CCCN(CCc3ccc4c(c3)OCO4)C2)c2ccccc2)cc1 [Zamifenacin fumarate],-28.9 ± 12,-134 ± 110,-43.7 ± 7,-42.9 ± 13
CS(=O)(=O)c1ccc(Cn2c3c(c4cc(F)cc(F)c42)CCCC3CC(=O)O)cc1 (configuration not stated),-13.6 ± 13,-8.82 ± 4.6,-0.141 ± 2.5,-19.3 ± 13
Cc1cc(C)c(N(Cc2ccccc2)S(=O)(=O)c2ccc(OCCNC(=O)c3cc4ccccc4o3)cc2)c(C(=O)NO)c1,-32 ± 9.8,-140 ± 110,-31.8 ± 2.5,-37 ± 9.4

Structure (SMILES),robust z score of cell number (mIMCD3 [1]; siRNA: siRpgrip1l),robust z score of cell number (mIMCD3 [1]; siRNA: siScr),robust z score of cilia incidence (mIMCD3 [2]),robust z score of cilia incidence (mIMCD3 [3])
COc1ccc(NC(=O)c2ccc(-c3ccc(-c4noc(C)n4)cc3C)cc2)cc1OCCN(C)C,-308 ± 220,-40.6 ± 9.6,-52.6 ± 6.9,-34.6 ± 11
COCCCC/C(=N\OCCN)c1ccc(C(F)(F)F)cc1 [Fluvoxamine maleate],-14.5 ± 7.9,-3.98 ± 0.6,-1.48 ± 0.87,-22.55 ± 0.18
CC(=O)Nc1ccc(O)cc1 [Acetaminophen],-1.63 ± 1.9,-3.16 ± 1.2,-0.845 ± 1,-20.3 ± 17
CC1(C)O[C@@H]2[C@@H](CO[C@@]3(COS(N)(=O)=O)OC(C)(C)O[C@@H]23)O1 [Topiramate],-13.2 ± 14,1.2 ± 1.2,0.335 ± 0.22,-5.43 ± 2.7
C[C@@H](CN1CCC(Cc2ccccc2)CC1)[C@@H](O)c1ccc(O)cc1 [Ro 25-6981 maleate],-126 ± 130,-35.9 ± 3.2,-42.3 ± 11,-526 ± 310
N=C(N)S/C=C\C(=O)O [ZAPA sulphate],-12.3 ± 17,-3.33 ± 8.8,1.12 ± 1.3,-11.6 ± 9.9
Cc1cc(C)c(S(=O)(=O)Nc2cccc(C(F)(F)F)c2)c(C)c1,-43.3 ± 40,-43.9 ± 30,-121 ± 62,-121 ± 110
CC(C)NCC(O)c1ccc(NS(C)(=O)=O)cc1 (configuration not stated) [Sotalol hydrochloride],-2.79 ± 0.93,0.826 ± 0.24,-3.98 ± 2.7,-9 ± 2.2
COC(=O)C1=C(C)NC(C)=C([N+](=O)[O-])C1c1ccccc1C(F)(F)F (racemic),-39.8 ± 48,2.63 ± 5.9,2.12 ± 0.18,-164 ± 110
CN(C)[C@@H]1CCc2[nH]c3ccc(NC(=O)c4ccc(F)cc4)cc3c2C1,-28.6 ± 14,-27.5 ± 4.7,-52.1 ± 41,-32.4 ± 15
Cc1c[nH]c(=O)n(CCCN2CCN(c3ccccc3OCC(F)(F)F)CC2)c1=O,-23.9 ± 17,-2.94 ± 2,1.58 ± 5.5,-9.5 ± 1.2
CC[C@H](NC(=O)c1c(C)c(-c2ccccc2)nc2ccccc12)c1ccccc1,-178 ± 130,-18.2 ± 4.9,-2.81 ± 9.6,-15.5 ± 4.7
N=C(N)NC(=O)c1nc(Cl)c(N)nc1N [Amiloride hydrochloride],-3.25 ± 1.7,-1.04 ± 0.3,0.645 ± 2,-5.78 ± 2.1
CC(C)c1onc(-c2c(Cl)cccc2Cl)c1COc1ccc(/C=C/c2cccc(C(=O)O)c2)c(Cl)c1,-31.8 ± 10,-139 ± 100,-63.9 ± 13,-56.5 ± 7
COC(=O)[C@@H]1CC2=CC(=O)CC[C@]2(C)[C@@]23O[C@@H]2C[C@@]2(C)[C@@H](CC[C@@]24CCC(=O)O4)[C@H]13 [Eplerenone],-5.2 ± 3.6,0.183 ± 2.3,0.185 ± 0.39,-7.56 ± 5
Cc1[nH]c(/C=C2\C(=O)Nc3ccccc32)c(C)c1CCC(=O)O,-14.2 ± 13,-3.57 ± 6.7,0.901 ± 2.1,-5.36 ± 3.2
Fc1ccc(-c2nc3n(c2-c2ccncc2)CCS3)cc1,-12.8 ± 6,-18.4 ± 15,-1.25 ± 2.4,-16.2 ± 13
O=C(O)CCC/C=C\C[C@@H]1CO[C@H](C(F)(F)F)O[C@@H]1c1ccccc1O,-4.76 ± 0.64,-7.41 ± 0.41,-0.527 ± 3.3,-1.99 ± 0.24
CN1CCN(C(=O)c2nc3ccc(Cl)cc3[nH]2)CC1,-3.97 ± 2.4,-3.07 ± 1.9,0.348 ± 1.3,-9.95 ± 6.4
Cc1cccc(C)c1NC(=O)C[N+](C)(C)C,-5.62 ± 2.7,1.16 ± 0.6,-0.41 ± 2.2,-10.5 ± 1.7
CCC(=O)O[C@]1(C(=O)SCF)[C@H](C)C[C@H]2[C@@H]3C[C@H](F)C4=CC(=O)C=C[C@]4(C)[C@@]3(F)[C@@H](O)C[C@@]21C [Fluticasone propionate],-12.4 ± 7,-16.8 ± 15,-2.36 ± 4.9,-15 ± 7.5

# Filtered by structure, those above containing a CF3 group (5)
Structure (SMILES),robust z score of cell number (mIMCD3 [1]; siRNA: siRpgrip1l),robust z score of cell number (mIMCD3 [1]; siRNA: siScr),robust z score of cilia incidence (mIMCD3 [2]),robust z score of cilia incidence (mIMCD3 [3])
COCCCC/C(=N\OCCN)c1ccc(C(F)(F)F)cc1 [Fluvoxamine maleate],-14.5 ± 7.9,-3.98 ± 0.6,-1.48 ± 0.87,-22.55 ± 0.18
Cc1cc(C)c(S(=O)(=O)Nc2cccc(C(F)(F)F)c2)c(C)c1,-43.3 ± 40,-43.9 ± 30,-121 ± 62,-121 ± 110
COC(=O)C1=C(C)NC(C)=C([N+](=O)[O-])C1c1ccccc1C(F)(F)F (racemic),-39.8 ± 48,2.63 ± 5.9,2.12 ± 0.18,-164 ± 110
Cc1c[nH]c(=O)n(CCCN2CCN(c3ccccc3OCC(F)(F)F)CC2)c1=O,-23.9 ± 17,-2.94 ± 2,1.58 ± 5.5,-9.5 ± 1.2
O=C(O)CCC/C=C\C[C@@H]1CO[C@H](C(F)(F)F)O[C@@H]1c1ccccc1O,-4.76 ± 0.64,-7.41 ± 0.41,-0.527 ± 3.3,-1.99 ± 0.24

# Further compounds.

Structure (SMILES),robust z score of cell number (mIMCD3 [1]; siRNA: siRpgrip1l),robust z score of cell number (mIMCD3 [1]; siRNA: siScr),robust z score of cilia incidence (mIMCD3 [2]),robust z score of cilia incidence (mIMCD3 [3])
COc1ccc(Nc2ncnc3ccc(OC)cc23)cc1 [MPMQ hydrochloride],-14.4 ± 7.8,-10.1 ± 1.4,-7.7 ± 7.4,-16.6 ± 10
CN(C)CCCCSC(=N)N,-4.36 ± 4.6,-1.34 ± 0.54,0.878 ± 1.2,-8 ± 6.4
CCN(CC)CC1CCN(c2ncc3ncnc(Nc4ccc(F)c(Cl)c4)c3n2)CC1 [BIBU 1361 dihydrochloride],-29.9 ± 15,-27.5 ± 5,-47.6 ± 41,-33.2 ± 17
CC(C)(C)c1ccc(S(=O)(=O)/C=C/C#N)cc1,-54.8 ± 55,-27.4 ± 22,-9.89 ± 3.5,-17.2 ± 12
COCCOC(=O)C1=C(C)NC(C)=C(C(=O)OC/C=C/c2ccccc2)C1c1cccc([N+](=O)[O-])c1 (configuration not stated) [Cilnidipine],-29.7 ± 12,-129 ± 100,-19.8 ± 0.62,-29.1 ± 1.3
CC(C)NCC(O)COc1ccc(COCCOC(C)C)cc1 (racemic) [(±)-Bisoprolol hemifumarate],-2.08 ± 0.48,-6.13 ± 6.4,-5.33 ± 7.3,-8.12 ± 2.5
O=C(O)COCCN1CCN(C(c2ccccc2)c2ccc(Cl)cc2)CC1 (configuration not stated) [Cetirizine dihydrochloride],-4.13 ± 0.51,-21.9 ± 18,-3 ± 0.76,-10.7 ± 0.83
COC(=O)Nc1ccc2[nH]cc(CCNC(C)=O)c2c1,-0.859 ± 1.9,-2.77 ± 0.41,-3.09 ± 5.3,-7.85 ± 1.7
CCCCOc1cc(CC2CNC(=O)N2)ccc1OC (configuration not stated),1.89 ± 5.9,-7.14 ± 3.8,1.94 ± 4.8,-5.82 ± 4.2
Fc1ccc([C@@H]2CCNC[C@H]2COc2ccc3c(c2)OCO3)cc1 [Paroxetine maleate],-35.4 ± 20,-49.5 ± 35,-18.9 ± 0.32,-50.3 ± 15
OC(CN1CCC(Cc2ccc(F)cc2)CC1)c1ccc(Cl)cc1 (configuration not stated) [Eliprodil],-3.72 ± 1.5,-9.09 ± 10,-6.69 ± 0.8,-27.4 ± 16
O=c1[nH]c2cc(Cl)ccc2c(O)c1-c1cccc(Oc2ccccc2)c1,-7.2 ± 1.2,-5.53 ± 3.8,2.88 ± 1.8,-6.65 ± 0.37
c1ccc(-c2[nH]ncc2-c2ccnc3ccccc23)nc1,-6.6 ± 3.9,0.53 ± 1.8,-0.783 ± 2.5,-9.73 ± 4
CCn1ccnc1CC1COc2ccccc2O1 (configuration not stated) [Imiloxan hydrochloride],-7.55 ± 8.2,-3 ± 4.3,-8.54 ± 6,-15.7 ± 9.8
O=C(Nc1ccncc1)c1cc([N+](=O)[O-])ccc1Cl,-10 ± 6.4,-8.38 ± 2.7,-0.33 ± 0.76,-12 ± 8.4
C/C(=N\NC(=O)C1C(=O)NCC1c1ccccc1)c1cccc(Br)c1 (configuration not stated),-4.36 ± 3.2,-3.15 ± 3.1,-7.06 ± 11,-5.61 ± 0.55
C[C@H](NC(=O)c1sccc1OCc1ccc(Cl)cc1)c1ccccc1,-62.1 ± 53,-51.4 ± 1.6,-59.5 ± 11,-36.4 ± 11
NCCCCCCCCCCNS(=O)(=O)c1cccc2c(Cl)cccc12 [A-7 hydrochloride],-122 ± 97,-83.1 ± 47,-40.3 ± 8.6,-42.9 ± 22
CCOC(=O)c1ccc(OC(=O)CCCCCNC(=N)N)cc1 [Gabexate mesylate],1.52 ± 2.5,2.65 ± 3.5,0.574 ± 1.8,-27.1 ± 25
CCO/C(O)=C1\C(C)=NC(c2ccccc2)=C(C(=O)OCc2ccc([N+](=O)[O-])cc2)C1C#Cc1ccccc1 (configuration not stated),-77.2 ± 69,-6.18 ± 0.66,-2.24 ± 4.4,-15.7 ± 0.35
O=C(CCCCCN1C(=O)c2cccc3cccc(c23)C1=O)NO [Scriptaid],-30 ± 15,-27.6 ± 4.7,-33.3 ± 42,-33.4 ± 16
